According to publication PMC10721265:
No constants are given. Whether binding was seen depends on the method and setting. Binding seen in cells or lysates may run through a third protein. These calls come from enrichment with a bait or labelling near it, and not all partners need be listed. Values belong to the binder of their own block, whether it stands above or below them.

Molecular target: T1, A1CF (mouse (endogenous in liver)) (UniProt Q5YD48)
T1 sequence: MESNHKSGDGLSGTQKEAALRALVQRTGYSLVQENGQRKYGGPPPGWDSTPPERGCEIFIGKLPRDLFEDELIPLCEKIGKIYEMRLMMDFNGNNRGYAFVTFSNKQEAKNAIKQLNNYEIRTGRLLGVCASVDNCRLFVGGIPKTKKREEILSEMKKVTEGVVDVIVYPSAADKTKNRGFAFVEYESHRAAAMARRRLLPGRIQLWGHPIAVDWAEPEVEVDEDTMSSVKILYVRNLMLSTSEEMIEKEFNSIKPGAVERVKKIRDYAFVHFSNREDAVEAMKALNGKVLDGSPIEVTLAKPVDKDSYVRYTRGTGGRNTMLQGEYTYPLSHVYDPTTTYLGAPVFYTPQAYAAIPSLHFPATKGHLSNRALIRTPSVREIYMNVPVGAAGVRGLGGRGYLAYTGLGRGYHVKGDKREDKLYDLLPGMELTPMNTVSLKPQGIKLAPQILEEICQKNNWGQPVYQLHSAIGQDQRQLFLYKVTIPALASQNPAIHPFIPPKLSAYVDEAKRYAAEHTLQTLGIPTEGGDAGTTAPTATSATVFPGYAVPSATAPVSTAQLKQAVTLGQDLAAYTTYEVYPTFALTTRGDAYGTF
Test: affinity purification with mass spectrometry; endogenous A1CF immunoprecipitated from liver lysates of mice fed a normal diet (RIPA buffer, washes with RIPA + 500 mM NaCl), IgG as control; label-free LC-MS/MS

binding: binds
B1: RBM47 (protein, UniProt Q91WT8 1-590)
chain: MTAEDSATAMNSDPTVGSSTKVPEGVAGAPNEAALLALIERTGYTMVQENGQRKYGGPPPGWEGPHPQRGCEVFVGKIPRDVYEDELVPVFETVGRIYELRLMMDFDGKNRGYAFVMYCHKHEAKRAVRELNNYEIRPGRLLGVCCSVDNCRLFIGGIPKMKKRGEILEEIAKVTEGVLNVIVYASAADKMKNRGFAFVEYESHRAAAMARRKLMPGRIQLWGHQIAVDWAEPEIDVDEDVMQTVKILYVRNLMIETTEETIKKSFGQFNPGCVERVKKIRDYAFVHFTSREDAVHAMNNLNGTELEGSCLEVTLAKPVDKEQYSRYQKAAKGGGGSAEAVAQQPSYVYSCDPYTLAYYGYPYNALIGPNRDYFVKTGSIRGRGRGAAGNRTPGPRGSYLGGYSAGRGIYSRYHEGKGKQQEKGYELVPNLEISPVNPVAIKPGTVAIPAIGAQYSMFQAAPAPKIIEDGKIHTMEHMISPIAVQPDPATAAAAAAAAAAAAVIPAVSTPPPFQGRPITPVYTVAPNVQRIPTAGIYGASYVPFAAPATATIATLQKNAAAAVYGGYAGYIPQAFPAALQVPIHDVYQTY

binding: binds
B2: TRIM21 E3 ubiquitin ligase (protein, UniProt Q62191 1-470)
chain: MSPSTTSKMSLEKMWEEVTCSICLDPMVEPMSIECGHCFCKECIFEVGKNGGSSCPECRQQFLLRNLRPNRHIANMVENLKQIAQNTKKSTQETHCMKHGEKLHLFCEEDGQALCWVCAQSGKHRDHTRVPIEEAAKVYQEKIHVVLEKLRKGKELAEKMEMDLTMQRTDWKRNIDTQKSRIHAEFALQNSLLAQEEQRQLQRLEKDQREYLRLLGKKEAELAEKNQALQELISELERRIRGSELELLQEVRIILERSGSWNLDTLDIDAPDLTSTCPVPGRKKMLRTCWVHITLDRNTANSWLIISKDRRQVRMGDTHQNVSDNKERFSNYPMVLGAQRFSSGKMYWEVDVTQKEAWDLGVCRDSVQRKGQFSLSPENGFWTIWLWQDSYEAGTSPQTTLHIQVPPCQIGIFVDYEAGVVSFYNITDHGSLIYTFSECVFAGPLRPFFNVGFNYSGGNAAPLKLCPLKM
